{"source": "PubChem BioAssay AID1224830 (NIAID, 2016)", "purpose": "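Host factors that control LPS-induced TNF expression in human macrophages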 (primary screen)", "cell system": "human THP-1 monocytic leukaemia cells, TNF dual-luciferase reporter clone, PMA-differentiated to macrophage-like cells", "reagent": "siRNA pool against human genes, 50 nM", "timing": "LPS for 4 h, given about 3 days after siRNA transfection", "conditions": "bacterial LPS (TLR4 ligand), 10 ng/ml", "measurement": "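Ratio of firefly to renilla light, scaled to the plate median and expressed as a robust z-score per replicate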", "scale": "TNF reporter robust z-score: higher = stronger TNF reporter response to LPS", "hit rule": "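Each well counts as active if its z-score is over 2.8 or under -1.5; controls are left without a call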", "note": "In all, the deposit lists about 18,000 reagents; this is a part drawn at random. In the full data, about 2,900 (16%) are marked active. 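Calls are made per well; low scores hint the gene aids the LPS response, high scores that it dampens it.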 Entries without a mark were called inactive. Repeated entries: four replicate wells of each siRNA pool."}
{"target gene": "CCDC122", "TNF reporter robust z-score": 0.2}
{"target gene": "CCDC122", "TNF reporter robust z-score": -0.21}
{"target gene": "CCDC122", "TNF reporter robust z-score": 0.34}
{"target gene": "CCDC122", "TNF reporter robust z-score": -0.43}
{"target gene": "GLRX3", "TNF reporter robust z-score": -1.44}
{"target gene": "GLRX3", "TNF reporter robust z-score": -1.21}
{"target gene": "GLRX3", "TNF reporter robust z-score": -0.93}
{"target gene": "GLRX3", "TNF reporter robust z-score": -0.03}
{"target gene": "SPATA22", "TNF reporter robust z-score": "-1.54 (active)"}
{"target gene": "SPATA22", "TNF reporter robust z-score": -0.63}
{"target gene": "SPATA22", "TNF reporter robust z-score": -0.35}
{"target gene": "SPATA22", "TNF reporter robust z-score": -1.03}
{"target gene": "PRSS36", "TNF reporter robust z-score": -0.86}
{"target gene": "PRSS36", "TNF reporter robust z-score": -0.44}
{"target gene": "PRSS36", "TNF reporter robust z-score": -0.61}
{"target gene": "PRSS36", "TNF reporter robust z-score": 0.79}
{"target gene": "BCAS1", "TNF reporter robust z-score": "2.87 (active)"}
{"target gene": "BCAS1", "TNF reporter robust z-score": 2.51}
{"target gene": "BCAS1", "TNF reporter robust z-score": -0.03}
{"target gene": "BCAS1", "TNF reporter robust z-score": -0.04}

2 entries already listed, ordered by “TNF reporter robust z-score”, highest first:
{"target gene": "CCDC122", "TNF reporter robust z-score": 0.34}
{"target gene": "CCDC122", "TNF reporter robust z-score": -0.43}
